This passage reports binding results from paper PMC5984089, “FBXW7 regulates DISC1 stability via the ubiquitin-proteosome system” (Molecular Psychiatry, 2017).

Amino acid sequences for entries named in this document (tags omitted). A change or cut given only in a name is not applied to a line headed by its entry.
UniProt Q9NRI5: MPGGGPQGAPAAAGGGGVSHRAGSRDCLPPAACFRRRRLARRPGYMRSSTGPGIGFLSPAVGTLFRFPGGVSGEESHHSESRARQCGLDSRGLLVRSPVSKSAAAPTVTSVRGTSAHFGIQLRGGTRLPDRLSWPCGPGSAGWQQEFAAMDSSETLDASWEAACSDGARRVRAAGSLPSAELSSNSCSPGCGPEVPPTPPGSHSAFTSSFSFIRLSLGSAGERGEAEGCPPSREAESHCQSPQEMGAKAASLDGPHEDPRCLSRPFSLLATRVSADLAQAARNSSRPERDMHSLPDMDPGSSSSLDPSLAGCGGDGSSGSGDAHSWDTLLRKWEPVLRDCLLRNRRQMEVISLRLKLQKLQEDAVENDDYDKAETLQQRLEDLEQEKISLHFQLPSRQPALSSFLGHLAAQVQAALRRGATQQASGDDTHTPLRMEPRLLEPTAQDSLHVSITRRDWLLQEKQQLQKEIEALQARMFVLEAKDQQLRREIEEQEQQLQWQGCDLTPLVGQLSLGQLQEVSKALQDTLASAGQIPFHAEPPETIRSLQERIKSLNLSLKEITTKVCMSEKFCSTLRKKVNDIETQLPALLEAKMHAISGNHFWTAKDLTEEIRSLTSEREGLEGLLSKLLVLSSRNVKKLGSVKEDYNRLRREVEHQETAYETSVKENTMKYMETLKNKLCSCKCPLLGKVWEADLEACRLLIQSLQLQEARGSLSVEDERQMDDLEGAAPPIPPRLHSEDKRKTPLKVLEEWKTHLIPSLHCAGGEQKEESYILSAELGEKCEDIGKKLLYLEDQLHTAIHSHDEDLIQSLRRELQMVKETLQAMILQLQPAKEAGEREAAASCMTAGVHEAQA

This assay addresses Skp1-FBXW7 complex (human FBXW7 residues 263-707 with truncated Skp1, His6 tag cleaved). The experiment in a line: crystal structure; Skp1-FBXW7 mixed with a twofold molar excess of the DISC1 peptide; crystallised from 100 mM HEPES-Na (pH 7.4), 1.2 M Li2SO4, hanging drop, 4 °C; one complex in the asymmetric unit; both purified.

No constants are given. Whether binding was seen depends on the method and setting. Binding calls can cover weak binding; strength is not graded here.

As to PEVPPTPPGSHSAFT (peptide, UniProt Q9NRI5 193-207, phosphothreonine at 198, phosphoserine at 202) [DISC1 peptide (residues 193-207, phosphorylated at Thr198 and Ser202)], the binding entry is on record as “binds”.
